# In the supplement of paper PMC8728848:
# The list shows a part of the results.
# B1: SynCAM (Mus musculus) (protein)
# chain: MASAVLPSGSQCAAAAAVAAAAAPPGLRLRLLLLLLSAAALIPTGDGQNLFTKDVTVIEGEVATISCQVNKSDDSVIQLLNPNRQTIYFRDFRPLKDSRFQLLNFSSSELKVSLTNVSISDEGRYFCQLYTDPPQESYTTITVLVPPRNLMIDIQKDTAVEGEEIEVNCTAMASKPATTIRWFKGNKELKGKSEVEEWSDMYTVTSQLMLKVHKEDDGVPVICQVEHPAVTGNLQTQRYLEVQYKPQVHIQMTYPLQGLTREGDAFELTCEAIGKPQPVMVTWVRVDDEMPQHAVLSGPNLFINNLNKTDNGTYRCEASNIVGKAHSDYMLYVYDPPTTIPPP
# How the values were obtained:
# Test in all cases: glycan array binding signal (z-score within array); higher = stronger binding
# Conditions in all cases: glycan notation: IUPAC condensed, linker removed
# [1] = target: Neu5Ac(a2-3)Gal(b1-3)[Fuc(a1-4)]GlcNAc
# Procedure, shortened: (§1)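 The binding signal is a Z-score computed within each array. Data were drawn from 3228 arrays in the Consortium for Functional Glycomics database, restricted to those with a known protein sequence. Scores were averaged over arrays of the same protein sequence at different concentrations or buffers, and over linkers, and negative values can be taken as non-binding.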
# [2] = target: Neu5Ac(a2-3)Gal(b1-3)[Fuc(a1-4)]GlcNAc(b1-3)Gal(b1-3)[Fuc(a1-4)]GlcNAc
# Procedure, shortened: as §1
# [3] = target: Neu5Ac(a2-3)Gal(b1-3)[Fuc(a1-4)]GlcNAc(b1-3)Gal(b1-4)[Fuc(a1-3)]GlcNAc
# Procedure, shortened: as §1
# [4] = target: Neu5Ac(a2-3)Gal(b1-3)[GlcNAc(b1-6)]GalNAc
# Procedure, shortened: as §1
# [5] = target: Neu5Ac(a2-3)Gal(b1-3)[Neu5Ac(a2-6)]GalNAc
# Procedure, shortened: as §1
# [6] = target: Neu5Ac(a2-3)Gal(b1-3)[Neu5Ac(a2-6)]GlcNAc(b1-3)[Fuc(a1-3)[Gal(b1-4)]GlcNAc(b1-6)]Gal(b1-4)Glc
# Procedure, shortened: as §1
# [7] = target: Neu5Ac(a2-3)Gal(b1-3)]Neu5Ac(a2-3)Gal(b1-4)]GlcNAc
# Procedure, shortened: as §1
# Neu5Ac(a2-3)Gal(b1-4)Glc = target: Neu5Ac(a2-3)Gal(b1-4)Glc
# Procedure, shortened: as §1
# [8] = target: Neu5Ac(a2-3)Gal(b1-4)GlcNAc
# Procedure, shortened: as §1
# [9] = target: Neu5Ac(a2-3)Gal(b1-4)GlcNAc(b1-2)Man
# Procedure, shortened: as §1
# [10] = target: Neu5Ac(a2-3)Gal(b1-4)GlcNAc(b1-2)Man(a1-3)[GlcNAc(b1-4)][Neu5Ac(a2-3)Gal(b1-4)GlcNAc(b1-2)Man(a1-6)]Man(b1-4)GlcNAc(b1-4)GlcNAc
# Procedure, shortened: as §1
# [11] = target: Neu5Ac(a2-3)Gal(b1-4)GlcNAc(b1-2)Man(a1-3)[Neu5Ac(a2-3)Gal(b1-4)GlcNAc(b1-2)Man(a1-6)]Man(b1-4)GlcNAc(b1-4)GlcNAc
# Procedure, shortened: as §1
# [12] = target: Neu5Ac(a2-3)Gal(b1-4)GlcNAc(b1-2)Man(a1-3)[Neu5Ac(a2-3)Gal(b1-4)GlcNAc(b1-2)Man(a1-6)]Man(b1-4)GlcNAc(b1-4)[Fuc(a1-6)]GlcNAc
# Procedure, shortened: as §1
# [13] = target: Neu5Ac(a2-3)Gal(b1-4)GlcNAc(b1-2)Man(a1-3)[Neu5Ac(a2-6)Gal(b1-4)GlcNAc(b1-2)Man(a1-6)]Man(b1-4)GlcNAc(b1-4)GlcNAc
# Procedure, shortened: as §1
# [14] = target: Neu5Ac(a2-3)Gal(b1-4)GlcNAc(b1-2)[Neu5Ac(a2-3)Gal(b1-4)GlcNAc(b1-4)]Man(a1-3)[GlcNAc(b1-4)][Neu5Ac(a2-3)Gal(b1-4)GlcNAc(b1-2)[Neu5Ac(a2-3)Gal(b1-4)GlcNAc(b1-6)]Man(a1-6)]Man(b1-4)GlcNAc(b1-4)GlcNAc
# Procedure, shortened: as §1
# [15] = target: Neu5Ac(a2-3)Gal(b1-4)GlcNAc(b1-2)[Neu5Ac(a2-3)Gal(b1-4)GlcNAc(b1-4)]Man(a1-3)[GlcNAc(b1-4)][Neu5Ac(a2-3)Gal(b1-4)GlcNAc(b1-4)Man(a1-6)]Man(b1-4)GlcNAc(b1-4)GlcNAc
# Procedure, shortened: as §1
# [16] = target: Neu5Ac(a2-3)Gal(b1-4)GlcNAc(b1-2)[Neu5Ac(a2-3)Gal(b1-4)GlcNAc(b1-6)]Man(a1-6)[Neu5Ac(a2-3)Gal(b1-4)GlcNAc(b1-2)Man(a1-3)]Man(b1-4)GlcNAc(b1-4)GlcNAc
# Procedure, shortened: as §1
# [17] = target: Neu5Ac(a2-3)Gal(b1-4)GlcNAc(b1-2)[Neu5Ac(a2-3)Gal(b1-4)GlcNAc(b1-6)]Man(a1-6)[Neu5Ac(a2-3)Gal(b1-4)GlcNAc(b1-2)Man(a1-3)][GlcNAc(b1-4)]Man(b1-4)GlcNAc(b1-4)GlcNAc
# Procedure, shortened: as §1
# [18] = target: Neu5Ac(a2-3)Gal(b1-4)GlcNAc(b1-3)Gal
# Procedure, shortened: as §1
# [19] = target: Neu5Ac(a2-3)Gal(b1-4)GlcNAc(b1-3)Gal(b1-3)GlcNAc
# Procedure, shortened: as §1
# [20] = target: Neu5Ac(a2-3)Gal(b1-4)GlcNAc(b1-3)Gal(b1-4)GlcNAc
# Procedure, shortened: as §1
# [21] = target: Neu5Ac(a2-3)Gal(b1-4)GlcNAc(b1-3)Gal(b1-4)GlcNAc(b1-2)Man(a1-3)[Neu5Ac(a2-3)Gal(b1-4)GlcNAc(b1-3)Gal(b1-4)GlcNAc(b1-2)Man(a1-6)]Man(b1-4)GlcNAc(b1-4)GlcNAc
# Procedure, shortened: as §1
# [22] = target: Neu5Ac(a2-3)Gal(b1-4)GlcNAc(b1-3)Gal(b1-4)GlcNAc(b1-3)Gal(b1-4)GlcNAc
# Procedure, shortened: as §1
# [23] = target: Neu5Ac(a2-3)Gal(b1-4)GlcNAc(b1-3)Gal(b1-4)GlcNAc(b1-3)Gal(b1-4)GlcNAc(b1-2)Man(a1-3)[Neu5Ac(a2-3)Gal(b1-4)GlcNAc(b1-3)Gal(b1-4)GlcNAc(b1-3)Gal(b1-4)GlcNAc(b1-2)Man(a1-6)]GalNAc
# Procedure, shortened: as §1
# [24] = target: Neu5Ac(a2-3)Gal(b1-4)GlcNAc(b1-3)Gal(b1-4)GlcNAc(b1-3)GalNAc
# Procedure, shortened: as §1
# [25] = target: Neu5Ac(a2-3)Gal(b1-4)GlcNAc(b1-3)Gal(b1-4)GlcNAc(b1-3)[Neu5Ac(a2-3)Gal(b1-4)GlcNAc(b1-3)Gal(b1-4)GlcNAc(b1-6)]GalNAc
# Procedure, shortened: as §1
# [26] = target: Neu5Ac(a2-3)Gal(b1-4)GlcNAc(b1-3)Gal(b1-4)GlcNAc(b1-6)[Gal(b1-3)]GalNAc
# Procedure, shortened: as §1
# [27] = target: Neu5Ac(a2-3)Gal(b1-4)GlcNAc(b1-3)Gal(b1-4)[Fuc(a1-3)]GlcNAc
# Procedure, shortened: as §1
# [28] = target: Neu5Ac(a2-3)Gal(b1-4)GlcNAc(b1-3)GalNAc
# Procedure, shortened: as §1
# [29] = target: Neu5Ac(a2-3)Gal(b1-4)GlcNAc(b1-3)[Neu5Ac(a2-3)Gal(b1-4)GlcNAc(b1-6)]GalNAc
# Procedure, shortened: as §1
binder,measurement,setting,value
B1,glycan array binding signal (z-score),[1],0.283
same,glycan array binding signal (z-score),[2],0.64
same,glycan array binding signal (z-score),[3],0.587
same,glycan array binding signal (z-score),[4],0.48
same,glycan array binding signal (z-score),[5],-0.215
same,glycan array binding signal (z-score),[6],-0.498
same,glycan array binding signal (z-score),[7],-0.395
same,glycan array binding signal (z-score),Neu5Ac(a2-3)Gal(b1-4)Glc,0.141
same,glycan array binding signal (z-score),[8],0.426
same,glycan array binding signal (z-score),[9],-0.036
same,glycan array binding signal (z-score),[10],-1.56
same,glycan array binding signal (z-score),[11],-0.835
same,glycan array binding signal (z-score),[12],0.033
same,glycan array binding signal (z-score),[13],-0.54
same,glycan array binding signal (z-score),[14],0.594
same,glycan array binding signal (z-score),[15],-0.33
same,glycan array binding signal (z-score),[16],1.17
same,glycan array binding signal (z-score),[17],0.14
same,glycan array binding signal (z-score),[18],-0.085
same,glycan array binding signal (z-score),[19],-0.53
same,glycan array binding signal (z-score),[20],0.31
same,glycan array binding signal (z-score),[21],1.26
same,glycan array binding signal (z-score),[22],-0.733
same,glycan array binding signal (z-score),[23],1.17
same,glycan array binding signal (z-score),[24],-0.739
same,glycan array binding signal (z-score),[25],-0.09
same,glycan array binding signal (z-score),[26],-0.784
same,glycan array binding signal (z-score),[27],1.16
same,glycan array binding signal (z-score),[28],0.12
same,glycan array binding signal (z-score),[29],-0.987

# For reference, some entries already given.
binder,measurement,setting,value
B1,glycan array binding signal (z-score),[21],1.26
same,glycan array binding signal (z-score),[22],-0.733
